Measurements published in US20110065645A1, “Compositions and Methods for Modulating Neuron Degeneration and Neuron Guidance” (The Regents of the University of California, priority 2009, published 2011).
For at least one compound, name, drawing or mass did not settle the structure.

Columns and labels:
[1] = test system: pre-crossing commissural axons; test: Precrossing commissural explant assay in collagen gel; format: cell-based, rat; conditions: Forskolin 25 μM; Netrin-1/Shh expressing cells
From the text: Shh activates Semaphorin repulsion in commissural axons. We investigated the mechanisms by which Semaphorin repulsion in commissural axons is switched on during spinal cord midline pathfinding. Commissural neuron cell bodies are located in the dorsal spinal cord and initially extend axons to the ventral midline, the floor plate, in the process of several days (from late E8.9/early E9.5 in mouse and late E10 and E11 in rats till at least E12.5 in mouse and E14 in rat). The commissural axons in the rostral (anterior) spinal cord differentiate and their axons develop earlier than their caudal (posterior) counterparts. At each axis level, the more dorsal populations tend to differentiate and extend axons later than the ventral population in the dorsal spinal cord during this stage of development. […] To quantify these effects, the total length of axons extending towards (proximal) or away (distal) from cell aggregates (FIG. 31B) was calculated in each experiment as the ratio of axons growing proximally (P) divided by axons growing distally (D) (FIG. 31i). […]
Precrossing commissural explant assay. […] For quantification the total length of axon bundle was measured in the proximal (P) and distal (D) quadrants as depicted in FIG. 31B. […]

commissural axons = test: Open book spinal cord explant treatments and DiI injections (midline pathfinding); format: cell-based; conditions: rat E13 open-book; 5E1 100 ng/ml, Forskolin 25 μM, KT5720 25 μM; 12-14 hrs
From the text: Blocking Shh activity causes midline guidance defects. To determine the role of Shh in regulating midline pathfinding, we analyzed the trajectory of commissural axons in rat E13 “open-book” spinal cord preparations treated with the function-blocking antibody for Shh, 5E1. The projections of these commissural axons were visualized by injecting the lipophilic dye, DiI, to the dorsal margin of the spinal cord (FIG. 32J). In “open-book” explants, commissural axons can recapitulate the in vivo pathfinding and project from the dorsal spinal cord margin across the floor plate and then turn sharply anteriorly on the contralateral side.^(7,8). […] Normally, after midline crossing, commissural axons make a sharp anterior turn and either project into the ventral funiculus alongside the floor plate or fan out in a highly organized manner to grow laterally into the lateral funiculus^(7) (FIG. 32G). […] The spinal cord midline is a three-dimensional structure. […] Some of the injection sites were therefore scored for more than one category of phenotypes. […]
Shh may induce Sema repulsion by reducing cAMP/PKA signaling. […] In “open-book” explant cultures we treated commissural axons with the activator for adenylyl cyclase (and consequently cAMP), Forskolin and the PKA inhibitor KT5720 and analyzed commissural axon pathfidning by DiI tracing as shown in FIG. 32J. […]

C=C[C@@]1(C)CC(=O)[C@]2(O)[C@@]3(C)[C@@H](O)CCC(C)(C)[C@@H]3[C@H](O)[C@H](OC(C)=O)[C@@]2(C)O1 [Forskolin, reference compound]
Shh-induced Semaphorin repulsion in pre-crossing explants [1]: diminished | commissural axon midline pathfinding (DiI tracing) (commissural axons): many axons stalled
